Drawing on paper PMC3364193, this text covers binding for two substances.

Sequences of proteins named here, by UniProt entry; tags and fusion partners are left off.
UniProt P84077: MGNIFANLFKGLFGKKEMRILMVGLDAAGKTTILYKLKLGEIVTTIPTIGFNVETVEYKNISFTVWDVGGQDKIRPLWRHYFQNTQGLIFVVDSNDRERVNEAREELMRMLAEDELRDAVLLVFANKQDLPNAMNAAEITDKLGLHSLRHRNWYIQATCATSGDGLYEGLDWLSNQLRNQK
UniProt P62330: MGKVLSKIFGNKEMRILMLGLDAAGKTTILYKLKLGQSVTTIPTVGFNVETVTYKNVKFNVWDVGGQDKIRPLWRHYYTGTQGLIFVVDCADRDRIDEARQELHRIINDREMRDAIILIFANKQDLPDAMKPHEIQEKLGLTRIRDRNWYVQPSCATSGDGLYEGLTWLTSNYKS

In experiment [1] the target is T1, GST-Golgi associated, gamma adaptin ear containing, ARF binding protein 3 (GGA3) protein binding domain (PBD; amino acids 1-316) (human) (UniProt Q9NZ52).
T1 sequence: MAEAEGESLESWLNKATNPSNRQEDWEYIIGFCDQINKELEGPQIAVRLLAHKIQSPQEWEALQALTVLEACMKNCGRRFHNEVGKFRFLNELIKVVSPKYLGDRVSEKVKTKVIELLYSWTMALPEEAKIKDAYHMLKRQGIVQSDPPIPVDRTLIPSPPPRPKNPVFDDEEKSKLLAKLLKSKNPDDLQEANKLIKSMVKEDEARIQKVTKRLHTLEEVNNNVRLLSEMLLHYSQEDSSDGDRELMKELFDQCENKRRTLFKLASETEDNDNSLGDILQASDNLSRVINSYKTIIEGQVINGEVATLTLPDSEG
The experiment can be described thus: pull-down; untreated placental and myometrial tissue lysates (0.3 mg protein; NP, NIL, SL, PT-NIL, PT-SL) incubated 2 h at 4°C with 15 µl glutathione resin coupled to GST-GGA3 PBD (3 mg/ml of resin); washed in 50 mM Tris-HCl pH 7.5, 10 mM MgCl2, 150 mM NaCl, 1% Triton X-100; immunoblot with anti-ARF1 or anti-ARF6; only the target purified. (Immunoblotting shows a protein as a band on a membrane.)

Experiment [2] concerns the target T1, GST-Golgi associated, gamma adaptin ear containing, ARF binding protein 3 (GGA3) protein binding domain (PBD; amino acids 1-316) (human). Kind of experiment: pull-down; non-pregnant myometrium lysate incubated with 1 mM GDP for 30 min, then 2 h with GST-GGA3 PBD on glutathione resin; immunoblot with anti-ARF6; only the target purified.
The target is the same in experiment [3]. The experiment can be described thus: pull-down; non-pregnant myometrium lysate incubated with 0.1 mM GTPγS for 30 min, then 2 h with GST-GGA3 PBD on glutathione resin; immunoblot with anti-ARF6; only the target purified.

These are yes or no findings as the source states them, for the method shown. Binding seen in cells or lysates may run through a third protein. Some binding calls cover weakened binding; strength is not graded here. Tags and fused reporters may be left off the sequences shown.

For ARF1 (from UniProt P84077 1-181), the binding entry in experiment [1] was “binds”.

On to “ARF6 (ADP-ribosylation factor 6) (from UniProt P62330 1-175)”, for which the binding result in experiment [1] is recorded as “binds”; in experiment [2] it was “no binding (condition: lysate pre-treated with 1 mM GDP)”; in experiment [3], “binds”.
